Measurements reported in paper PMC6195791, “C9orf72, a protein associated with amyotrophic lateral sclerosis (ALS) is a guanine nucleotide exchange factor” (PeerJ, 2018).
Results are given in words; binding and its absence hold for the method and conditions named. Some binding calls cover weakened binding; strength is not graded here. Tags and fused reporters may be left off the sequences shown.

Protein sequences, listed by entry. Tags and fused reporters are not part of them.
UniProt P51149: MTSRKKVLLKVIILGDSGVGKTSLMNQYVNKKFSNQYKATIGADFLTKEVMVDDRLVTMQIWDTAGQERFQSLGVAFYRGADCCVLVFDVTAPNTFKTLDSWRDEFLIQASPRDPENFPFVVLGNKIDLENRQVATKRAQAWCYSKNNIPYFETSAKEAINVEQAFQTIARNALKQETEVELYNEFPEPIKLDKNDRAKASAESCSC
UniProt P60953: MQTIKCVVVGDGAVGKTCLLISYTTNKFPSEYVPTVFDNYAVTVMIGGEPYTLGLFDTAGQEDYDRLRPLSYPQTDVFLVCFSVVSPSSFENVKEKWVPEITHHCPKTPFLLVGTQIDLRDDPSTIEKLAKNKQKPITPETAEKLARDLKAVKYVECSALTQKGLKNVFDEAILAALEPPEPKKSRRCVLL
UniProt P61586: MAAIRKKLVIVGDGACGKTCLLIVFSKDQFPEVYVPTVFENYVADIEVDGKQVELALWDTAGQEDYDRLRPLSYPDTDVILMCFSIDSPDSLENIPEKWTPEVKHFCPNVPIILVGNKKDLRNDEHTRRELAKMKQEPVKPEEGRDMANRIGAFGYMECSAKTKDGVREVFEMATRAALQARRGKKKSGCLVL

Tests used:
Experiment in all cases: far-Western, overlay or dot blot; GTPases (bait) spotted at 50 pmoles on nitrocellulose, blocked with 5% milk in PBS plus 0.05% Tween-20, probed with 100 nM purified C9orf72 (prey) for at least 6-8 h at 4 °C, detected with polyclonal rabbit anti-C9orf72 antibody; both purified
[1] = target: T1, Rab5A (UniProt P20339 1-215)
T1 construct: Rab5A, amplified from its cDNA clone and put into pGEX-6p-1 (BamHI/XhoI); about 25 kDa after tag cleavage; source: E. coli BL21CodonPlus(DE3)RIPL, purified (GST Sepharose 4B, PreScission cleavage, second GST Sepharose pass); not shown: GST, N-terminal, cleaved
T1 sequence (looked up): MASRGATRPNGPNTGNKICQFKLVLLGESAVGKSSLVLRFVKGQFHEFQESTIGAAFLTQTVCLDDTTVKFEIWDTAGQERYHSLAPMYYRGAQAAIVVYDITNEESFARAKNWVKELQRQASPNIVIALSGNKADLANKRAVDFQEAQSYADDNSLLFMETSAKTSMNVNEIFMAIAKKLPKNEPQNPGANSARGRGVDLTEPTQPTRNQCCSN

[2] = target: T2, Rab11A (UniProt P62491 1-216)
T2 construct: Rab11A, amplified from its cDNA clone and put into pGEX-6p-1 (BamHI/XhoI); about 25 kDa after tag cleavage; source: E. coli BL21CodonPlus(DE3)RIPL, purified (GST Sepharose 4B, PreScission cleavage, second GST Sepharose pass); not shown: GST, N-terminal, cleaved
T2 sequence (looked up): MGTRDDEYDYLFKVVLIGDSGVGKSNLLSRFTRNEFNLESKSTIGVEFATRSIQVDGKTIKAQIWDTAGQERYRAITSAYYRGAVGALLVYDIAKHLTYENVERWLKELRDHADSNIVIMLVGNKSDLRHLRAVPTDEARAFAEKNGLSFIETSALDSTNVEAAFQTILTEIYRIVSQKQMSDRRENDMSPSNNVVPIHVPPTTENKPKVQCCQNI

[3] = target: Rab7A (UniProt P51149)
[4] = target: Cdc42 (UniProt P60953)
[5] = target: RhoA (UniProt P61586)

Measured: binding

B1: C9orf72 (N-terminal His6, pOPINF-C9orf72) (natural protein, human, UniProt Q96LT7 1-481, looked up)
chain: MSTLCPPPSPAVAKTEIALSGKSPLLAATFAYWDNILGPRVRHIWAPKTEQVLLSDGEITFLANHTLNGEILRNAESGAIDVKFFVLSEKGVIIVSLIFDGNWNGDRSTYGLSIILPQTELSFYLPLHRVCVDRLTHIIRKGRIWMHKERQENVQKIILEGTERMEDQGQSIIPMLTGEVIPVMELLSSMKSHSVPEEIDIADTVLNDDDIGDSCHEGFLLNAISSHLQTCGCSVVVGSSAEKVNKIVRTLCLFLTPAERKCSRLCEAESSFKYESGLFVQGLLKDSTGSFVLPFRQVMYAPYPTTHIDVDVNTVKQMPPCHEHIYNQRRYMRSELTAFWRATSEEDMAQDTIIYTDESFTPDLNIFQDVLHRDTLVKAFLDQVFQLKPGLSLRSTFLAQFLLVLHRKALTLIKYIEDDTQKGKKPFKSLRNLKIDLDLTAEGDLNIIMALAEKIKPGLHSFIFGRPFYTSVQERDVLMTF
notes: the homology model counts residues up to 481; No tag cleavage is described; also called His6-C9orf72; recombinant C9orf72; source: Sf9, baculovirus, purified (HisTrap HP, Superdex200 size-exclusion chromatography); not shown: His6, N-terminal, kept
binds: all assays above
